Experimental data from patent publication US10618944B2, “Tumor suppressor SALL1 as a therapeutic agent for treating cancer” (Saint Louis University, priority 2015, dated 2020).
At least one structure is not confirmed: it was looked up by name or label, or the drawing left a doubt.

Assays:
MCF-7 = assay: Senescence associated β-Galactosidase (SA-β-Gal) staining; type: cell-based, human; conditions: 5 μM for 5 days, SALL1-transfected cells
Method: (§1) Senescence associated β-Galactosidase (SA-β-Gal) activity in tumor cells was detected as previously described (30, 33). Briefly, tumor cell lines were transfected with or without plasmids and cultured for 3 or 5 days. Cells were washed in PBS (pH 7.2), fixed in 3% formaldehyde, and followed to incubate overnight at 37° C. with freshly prepared SA-β-Gal staining solution (1 mg/ml X-gal, 5 mM K3Fe[CN]6, 5 mM K4Fe[CN]6, 2 mM MgCl2 in PBS at pH 6.0). The stained cells were washed with H2O and examined with a microscope. For some experiments, SA-β-Gal^+ populations were determined in the transfected tumor cells in the presence of following various inhibitors or combined transfection with shRNAs: ATM inhibitor KU55933 (20 μM, Tocris Bioscience); mTOR inhibitor Rapmycin (5 μM, Sigma); MAPK inhibitors U0126 (10 μM), SB203580 (10 μM) and SP600125 (10 μM), or PI3 Kinase inhibitor Wortminnin (10 μM) (Calbiochemistry), or transfection with shRNAs against p38, ERK and mTOR, for 3 or 5 days. The treated tumor cells were then detected for SA-β-Gal expression.
(§2) The methods for design and construction of shRNA specific for ERK1, ERK2, P38a, JNK1 and mTOR or scrambled lenti-shRNAs, and generation of recombinant lentivirus carrying GFP and shRNA, have been described previously (Peng et al., 2005 and Peng et al., 2007). […]

E0771 = assay: as above; type: cell-based, murine; conditions: 5 μM for 5 days, SALL1-transfected cells
Method: as §1, §2

CO[C@H]1C[C@@H]2CC[C@@H](C)[C@@](O)(O2)C(=O)C(=O)N2CCCC[C@H]2C(=O)O[C@H]([C@H](C)C[C@@H]2CC[C@@H](O)[C@H](OC)C2)CC(=O)[C@H](C)/C=C(\C)[C@@H](O)[C@@H](OC)C(=O)[C@H](C)C[C@H](C)/C=C/C=C/C=C/1C [rapamycin]
SALL1-mediated senescence induction with mTOR inhibitor (MCF-7): dramatically prevented | SALL1-mediated senescence induction with mTOR inhibitor (E0771): dramatically prevented
